Measurements: PubChem BioAssay AID2685 (National Center for Advancing Translational Sciences (NCATS), 2010)
Some of the results follow. Shown are side measurements of this screen, not its main read-out; they come without a call. Compounds called inactive in the main read-out are mostly missing here. Words in brackets tell the shape of the fitted curve; partial curves, single points and poor fits give uncertain potencies.

Experiment: qHTS Assay for Lipid Storage Modulators in Drosophila S3 Cells;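 as to cell number change: cells counted by Cell Tracker Red CMTPX staining in the red channel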
Details: BODIPY lipid droplet fluorescence, 18-24 h; for cell number change: measured here: cell count max response, cells fed with added oleic acid
How it was run: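 Drosophila S3 cells got compounds at several concentrations plus oleic acid (400 uM solution). Laser-scanning cytometry with 488 nm excitation read lipid droplets at 500-530 nm and cells at 575-640 nm. Percent activity was relative to 20 uM Triacsin C.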

[1] = measured here: lipid fluorescence (Fed channel) AC50, cells fed with added oleic acid
[2] = measured here: cell number channel AC50, cells fed with added oleic acid

| Compound | cell number change | AC50 [1] | AC50 [2] |
| --- | --- | --- | --- |
| CCCCNC(=O)c1sc2nc(C)cc(COC)c2c1-n1cccc1 | -4.43% | 11.6 µM [falling, partial curve, poor fit] |  |
| C/C(=N\OCc1ccc(C#N)cc1)c1cc2ccccc2o1 | 7.93% | 10.3 µM [rising, partial curve] |  |
| CC(C)CCOP(=O)(c1ccccc1)c1ccccc1 | -6.2% | 20.6 µM [falling, single point] |  |
| CC(C)Oc1ccc(S(=O)(=O)N2CCOCC2)cc1NC(=O)CN1C(=O)NC2(CCCC2)C1=O | 7.33% |  |  |
| Cc1nnsc1-c1onc(C)c1C(=O)Nc1cc(Cl)cc(Cl)c1 | -0.679% |  | 0.82 µM [rising, single point] |
| CC(=O)Nc1ccc(NC(=O)COc2ccc(S(=O)(=O)N3CCCC3)cc2)cc1 | -5.26% |  |  |
| O=[N+]([O-])c1cccc(S(=O)(=O)NCCOc2cccc3cccnc23)c1 | -20.5% | 6.51 µM [falling, single point] |  |
| COCc1c(C(=O)N/N=C(/C)c2cccs2)nnn1-c1nonc1N | 7.21% |  |  |
| O=C(Nc1cccc(S(=O)(=O)N2CCCCC2)c1)c1ccc([N+](=O)[O-])o1 | -40.3% | 0.731 µM [falling, full curve, poor fit] | 0.0231 µM [falling, full curve, poor fit] |
| O=C(CN1CCOCC1)NCc1ccccc1Cl | -10.3% |  |  |
| O=C(COC(=O)/C=C/c1ccc(F)cc1)NC1CCCC1 | 7.5% |  |  |
| CCOC(=O)c1ccc(NC(=S)N(Cc2cccnc2)Cc2ccco2)cc1 | -68.7% | 18.4 µM [falling, single point] | 29.1 µM [falling, single point] |
| O=C(Cc1ccc(Cl)c(Cl)c1)Nc1cccc2ncccc12 | 68.2% |  | 18.4 µM [rising, single point] |
| CCOc1ccc(S(=O)(=O)n2cnc3ccccc32)cc1 |  | 0.651 µM [falling, single point] |  |
| O=C(O)c1cc(C(F)(F)F)nc2c(C(F)(F)F)cccc12 | -14.8% | 18.4 µM [falling, partial curve, poor fit] |  |
| CC1CCN(CCCNC(=O)c2cc3sccc3n2C)CC1 | 15.7% |  |  |

Looked up by structure from above:

| Compound | cell number change | AC50 [1] | AC50 [2] |
| --- | --- | --- | --- |
| CCOC(=O)c1ccc(NC(=S)N(Cc2cccnc2)Cc2ccco2)cc1 | -68.7% | 18.4 µM [falling, single point] | 29.1 µM [falling, single point] |
| COCc1c(C(=O)N/N=C(/C)c2cccs2)nnn1-c1nonc1N | 7.21% |  |  |

Later entries

| Compound | cell number change | AC50 [1] | AC50 [2] |
| --- | --- | --- | --- |
| Cc1ccccc1N1C(=O)CC(Sc2nnc(-c3ccccc3)o2)C1=O (stereo not given) | -87.2% | 25.9 µM [falling, partial curve] | 29.1 µM [falling, single point] |
| CCOC(=O)c1c(NC(=O)CC2SC(N)=NC2=O)sc2c1CCC(C)C2 (stereo not given) | 16.6% | 5.17 µM [rising, single point] |  |
| CC(=O)Cc1nsc(Nc2ccccc2)n1 | -71.5% | 23.1 µM [falling, partial curve] | 25.9 µM [falling, partial curve, poor fit] |
| COc1ccc(-c2nc3scc(-c4ccccc4)n3n2)cc1 | -17.4% | 0.651 µM [rising, single point] |  |
| O=C1C2ON(c3ccccc3)C(c3ccccc3F)C2C(=O)N1c1ccccc1 (stereo not given) | 2.2% | 0.206 µM [falling, partial curve, poor fit] |  |
| O=S(=O)(NCc1ccc2c(c1)OCO2)c1c(F)cc(F)cc1Br | 4.03% |  |  |
| Cc1ccnc(NC(=O)Nc2ccc(Br)cc2Cl)c1 |  | 29.1 µM [rising, single point] |  |
| CC(OC(=O)c1cccs1)C(=O)NCc1ccccc1 (stereo not given) | -31% |  | 10.3 µM [falling, partial curve] |
| COc1ccc(OC)c(N=c2ssnc2Cl)c1 | -65.9% | 29.1 µM [falling, single point] | 18.4 µM [falling, single point] |
| COc1ccc(OC)c2c1sc(=NC(=O)CN1C(=O)CCC1=O)n2C | -9.94% |  |  |
| CCOc1ccc(S(=O)(=O)N(C)CC(=O)NCc2ccccn2)cc1 | 17.8% | 8.2 µM [rising, partial curve] |  |
| CCOc1ccc(NS(=O)(=O)c2ccc(NC(=O)[C@@H]3CCCC[C@@H]3C(=O)O)cc2)cc1 | 17.5% | 29.1 µM [falling, single point] |  |
| C/C(=N/NC(=O)c1cc(C2CC2)[nH]n1)c1cccs1 | -1.37% | 0.146 µM [falling, full curve, poor fit] |  |
| C=CCNC(=O)C12CC3(C)CC(C)(CC(C)(C3)C1)C2 | 46.6% | 18.4 µM [rising, partial curve] | 18.4 µM [rising, single point] |
| C=C(C)C(=O)OC1(C(F)(F)F)Oc2cc(C)ccc2NC1=O (stereo not given) | -43.3% | 1.16 µM [falling, full curve] | 0.092 µM [falling, full curve, poor fit] |
| CN(c1ccc(C(=O)N2CCN(c3ccccc3F)CC2)cc1)S(=O)(=O)c1ccccc1 | 2.86% |  |  |
